Results: the supplement of paper PMC5949888
Most values lie at the floor of the assay. Slopes are relative: functional sequences can read slightly below zero.

Test system: Saccharomyces cerevisiae PS128 hsf1 delta, HSF1(1-493) fusion
Assay: growth estimate (transactivation domain function in HSF1 fusion, heat-shock survival) (a.u. (slope of normalised read count over time)); higher = stronger growth at 37°C, i.e. more transactivation activity
Conditions: library: random library

YYTGGHQAVYYATAIPG
growth estimate: < -0.25
